The results in this text go back to PMC6137200.

No constants are given. Whether binding was seen depends on the method and setting. Binding seen in cells or lysates may run through a third protein. A result given as binding can be weak or reduced; the word gives no strength. Where a sequence is shown, tags or fusion partners need not be part of it.

The assay has as its target DOPEY2-GFP (human). The assay can be described thus: co-IP; GFP nanotrap beads (Chromotek) on lysates of HEK293T cells transiently transfected (PEI, 48 h); co-precipitated proteins detected by immunoblot (Licor Odyssey). For orientation: A western blot detects proteins with antibodies after separation by electrophoresis.

B1: ATP9A-HA (protein, UniProt O75110 1-1047)
chain: MTDNIPLQPVRQKKRMDSRPRAGCCEWLRCCGGGEARPRTVWLGHPEKRDQRYPRNVINNQKYNFFTFLPGVLFNQFKYFFNLYFLLLACSQFVPEMRLGALYTYWVPLGFVLAVTVIREAVEEIRCYVRDKEVNSQVYSRLTARGTVKVKSSNIQVGDLIIVEKNQRVPADMIFLRTSEKNGSCFLRTDQLDGETDWKLRLPVACTQRLPTAADLLQIRSYVYAEEPNIDIHNFVGTFTREDSDPPISESLSIENTLWAGTVVASGTVVGVVLYTGRELRSVMNTSNPRSKIGLFDLEVNCLTKILFGALVVVSLVMVALQHFAGRWYLQIIRFLLLFSNIIPISLRVNLDMGKIVYSWVIRRDSKIPGTVVRSSTIPEQLGRISYLLTDKTGTLTQNEMIFKRLHLGTVAYGLDSMDEVQSHIFSIYTQQSQDPPAQKGPTLTTKVRRTMSSRVHEAVKAIALCHNVTPVYESNGVTDQAEAEKQYEDSCRVYQASSPDEVALVQWTESVGLTLVGRDQSSMQLRTPGDQILNFTILQIFPFTYESKRMGIIVRDESTGEITFYMKGADVVMAGIVQYNDWLEEECGNMAREGLRVLVVAKKSLAEEQYQDFEARYVQAKLSVHDRSLKVATVIESLEMEMELLCLTGVEDQLQADVRPTLETLRNAGIKVWMLTGDKLETATCTAKNAHLVTRNQDIHVFRLVTNRGEAHLELNAFRRKHDCALVISGDSLEVCLKYYEYEFMELACQCPAVVCCRCAPTQKAQIVRLLQERTGKLTCAVGDGGNDVSMIQESDCGVGVEGKEGKQASLAADFSITQFKHLGRLLMVHGRNSYKRSAALSQFVIHRSLCISTMQAVFSSVFYFASVPLYQGFLIIGYSTIYTMFPVFSLVLDKDVKSEVAMLYPELYKDLLKGRPLSYKTFLIWVLISIYQGSTIMYGALLLFESEFVHIVAISFTSLILTELLMVALTIQTWHWLMTVAELLSLACYIASLVFLHEFIDVYFIATLSFLWKVSVITLVSCLPLYVLKYLRRRFSPPSYSKLTS
Consider B1, for which the binding entry was “binds”.
